Experiment [1] has as its system mouse proximal colon circular muscle. Description: Colon circular muscle isometric tension recordings, proximal colon. Conditions: naive tissue, read-out: pD2 for morphine induced contractions (converted). The procedure:
(§1) Mice were euthanized by cervical dislocation. The colon was dissected, flushed of its contents, and trimmed of mesentery. […] The tissues, 0.5 cm in length, were suspended vertically along the axis of the circular muscle with a metal triangle tied to a hook under 1 g of passive tension in 15 mL siliconized organ baths.
(§2) Data are presented as the mean±S.E.M, values of P≤0.05 were considered significant.

Experiment [2] concerns mouse distal colon circular muscle. Description: Colon circular muscle isometric tension recordings, distal colon. To be noted: naive tissue, read-out: pD2 for morphine induced contractions (converted). How it is done: as §1, §2

`CN1CC[C@]23c4c5ccc(O)c4O[C@H]2[C@@H](O)C=C[C@H]3[C@H]1C5` [morphine, reference compound]: the EC50 in experiment [1] is 158 nM; in experiment [2], 1000 nM.

The values above are taken from US20190308987A1, “DUAL MODULATORS OF BOTH MU AND KAPPA OPIOID RECEPTORS” (priority 2016, published 2019).
